According to US7214771:
Results are given in words; binding and its absence hold for the method and conditions named. Some results given as binding are weak or reduced against the parent protein; the word gives no strength.

Amino acid sequences for entries named in this document (tags omitted).
UniProt P10644: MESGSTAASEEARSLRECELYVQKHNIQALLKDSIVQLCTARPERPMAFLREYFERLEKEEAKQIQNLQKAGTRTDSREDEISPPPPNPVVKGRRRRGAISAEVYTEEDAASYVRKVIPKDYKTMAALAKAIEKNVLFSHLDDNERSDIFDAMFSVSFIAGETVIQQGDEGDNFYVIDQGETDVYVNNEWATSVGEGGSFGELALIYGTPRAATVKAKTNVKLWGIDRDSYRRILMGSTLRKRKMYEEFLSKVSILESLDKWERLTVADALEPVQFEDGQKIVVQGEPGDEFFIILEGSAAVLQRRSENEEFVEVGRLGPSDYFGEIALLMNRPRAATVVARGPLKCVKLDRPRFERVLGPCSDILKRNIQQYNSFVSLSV

Molecular target: GST-RIα fusion protein (wild-type RIα), expressed in E. coli (UniProt P10644)
Experiment: GST pull down of [35S]methionine labeled RIAZ, SDS-PAGE and autoradiography

binding: binds
B1: RIα-associated zinc finger (RIAZ), in vitro-translated full length protein (protein)
chain: MERVNDASCGPSGCYTYQVSRHSTEMLHNLNQQRKNGGRFCDVLLRVGDESFPAHRAVLAACSEYFESVFSAQLGDGGAADGGPADVGGATAAPGGGAGGSRELEMHTISSKVFGDILDFAYTSRIVVRLESFPELMTAAKFLLMRSVIEICQEVIKQSNVQILVPPARADIMLFRPPGTSDLGFPLDMTNGAALAANSNGIAGSMQPEEEAARAAGAAIAGQASLPVLPGVDRLPMVAGPLSPQLLTSPFPSVASSAPPLTGKRGRGRPRKANLLDSMFGSPGGLREAGILPCGLCGKVFTDANRLRQHEAQHGVTSLQLGYIDLPPPRLGENGLPISEDPDGPRKRSRTRKQVACEICGKIFRDVYHLNRHKLSHSGEKPYSCPVCGLRFKRKDRMSYHVRSHDGSVGKPYICQSCGKGFSRPDHLNGHIKQVHTSERPHKCQTCNASFATRDRLRSHLACHEDKVPCQVCGKYLRAAYMADHLKKHSEGPSNFCSICNREGQKCSHQDPIESSDSYGDLSDASDLKTPEKQSANGSFSCDMAVPKNKMESDGEKKYPCPECGSFFRSKSYLNKHIQKVHVRALGGPLGDLGPALGSPFSPQQNMSLLESFGFQIVQSAFASSLVDPEVDQQPMGPEGK
modifications: [35S]methionine labeled
